Test results taken from the supplement of paper PMC8960247.
Where a name gives a salt, the structure may show the parent alone. Single values of this set are uncertain.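 Immortalized human renal angiomyolipoma cells with an empty vector keep TSC2 lost. A luminescent ATP assay measured viability, normalized per plate to vehicle-treated wells, in low-serum medium where TSC2-rescued cells fail to grow.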

Test system: 621-102 (TSC2-deficient)
Experiment: relative viability vs DMSO (fraction); higher = less cytotoxic
Settings: serum: 0.1% FBS, 72 h

SMILES	relative viability (0.0128 nM)	relative viability (0.064 nM)	relative viability (0.32 nM)	relative viability (1.6 nM)	relative viability (8 nM)	relative viability (40 nM)	relative viability (200 nM)	relative viability (1000 nM)	relative viability (5000 nM)
Cc1ccc(CN2CCNCC2)cc1NC(=O)CNc1ccc(F)c(F)c1	0.235	0.372	0.484	1.72	1.85	0.0756	0.0808	0.0453	0.676
CN(C)CC/C=C1/c2ccccc2COc2ccc(CC(=O)O)cc21 [Olopatadine HCl]	0.528	0.745	0.73	0.206	0.357	0.534	0.765	0.788	0.817
O=C(O)[C@H]1O[C@@H](Oc2cc3oc(-c4ccccc4)cc(=O)c3c(O)c2O)[C@H](O)[C@@H](O)[C@@H]1O [Baicalin]	1.32	1.33	1.41	1.22	0.665	0.788	1.04	1.07	0.593
CC(=O)NC[C@H]1CN(c2ccc(N3CCOCC3)c(F)c2)C(=O)O1 [Linezolid]	0.809	0.762	0.784	0.715	0.717	0.64	0.75	0.795	0.746
Cc1[nH]c(=O)c(C#N)cc1-c1ccncc1 [Milrinone]	0.561	0.742	0.68	0.678	0.566	0.602	0.55	0.577	0.575
N#CC1(c2ccc(NC(=O)c3cccnc3NCc3ccncc3)cc2)CCCC1 [Apatinib]	1.18	1.18	0.346	0.148	0.383	0.333	0.3	0.536	0.579
COc1ccc(S(=O)(=O)Nc2cccnc2Nc2ccc(O)cc2)cc1 [ABT-751]	0.798	0.823	0.821	0.783	0.713	0.7	0.746	0.0395	0.0511
C/C(=C\c1csc(C)n1)[C@@H]1C[C@@H]2O[C@@H]2CCC[C@H](C)[C@H](O)[C@@H](C)C(=O)C(C)(C)[C@@H](O)CC(=O)O1 [Epothilone A]	1.15	1.22	1.27	0.376	0.0202	0.0137	0.0161	0.0135	0.0119
CCNC(=O)c1cc2c(-c3cc(OCCN4CCCC4)c(Cl)cc3Cl)nc(N)nc2s1 [NVP-BEP800]	0.879	0.876	0.751	0.75	0.723	0.644	0.375	0.085	0.0285
Cc1nc(N)sc1-c1ccnc(Nc2ccc(N3CCOCC3)cc2)n1 [CYC116]	0.758	0.569	0.528	0.527	0.654	0.629	0.612	0.0404	0.0257
CC(C)(C)NC(=O)[C@H]1CC[C@H]2[C@@H]3CC[C@H]4NC(=O)C=C[C@]4(C)[C@H]3CC[C@]12C [Finasteride]	0.738	0.674	0.747	0.733	0.622	0.774	0.558	0.522	0.656
O=C(O)CC[C@H]1CC[C@@](c2cc(F)ccc2F)(S(=O)(=O)c2ccc(Cl)cc2)CC1 [MK-0752]	0.865	0.887	0.79	0.851	0.865	0.665	0.712	0.746	0.674
CC1=C(C(=O)Nc2cc3cn[nH]c3cc2F)C(c2ccc(C(F)(F)F)cc2)CC(=O)N1 (centres undefined)	0.834	0.734	0.819	0.712	0.647	0.733	0.75	0.663	0.509
COCCOC(=O)C1=C(C)NC(C)=C(C(=O)OC/C=C/c2ccccc2)C1c1cccc([N+](=O)[O-])c1 (centres undefined) [Cilnidipine]	0.616	0.724	0.727	0.73	0.645	0.731	0.745	0.732	0.768
CC(C)NCC(O)c1ccc(NS(C)(=O)=O)cc1 (centres undefined) [Sotalol]	0.57	0.699	0.76	0.779	0.799	0.758	0.831	0.819	0.818
Nc1[nH]cnc2ncnc1-2 [Adenine]	0.191	1.46	0.691	0.621	0.0919	1.15	1.04	0.0832	0.0696
Clc1ccc(C(Cn2ccnc2)OCc2c(Cl)cccc2Cl)c(Cl)c1 (centres undefined) [Isoconazole nitrate]	0.965	0.923	0.994	0.98	0.92	0.827	0.723	0.644	0.0115
COc1cc2ncnc(Nc3cccc(Br)c3)c2cc1OC	0.714	0.831	0.916	0.826	0.861	0.874	0.874	0.781	0.142
CC(O)(CS(=O)(=O)c1ccc(F)cc1)C(=O)Nc1ccc(C#N)c(C(F)(F)F)c1 (centres undefined) [Bicalutamide]	0.8	0.842	0.785	0.828	0.807	0.972	0.822	0.7	0.462
CC(C)n1nc(-c2cc3cc(O)ccc3[nH]2)c2c(N)ncnc21 [PP242]	0.701	0.769	0.744	0.685	0.64	0.728	0.669	0.635	0.274
Nc1nc(Cl)nc2c1ncn2[C@H]1C[C@H](O)[C@@H](CO)O1 [Cladribine]	0.989	0.991	1.08	0.983	0.697	0.709	0.462	0.0663	0.0103
CNC(=O)CN1CCC(Oc2cc3c(Nc4cccc(Cl)c4F)ncnc3cc2OC)CC1 [AZD8931]	0.575	0.598	0.69	0.598	0.555	0.487	0.422	0.459	0.472
O=C(c1cc(Cc2n[nH]c(=O)c3ccccc23)ccc1F)N1CCN(C(=O)C2CC2)CC1 [AZD2281]	0.851	0.823	0.811	0.878	0.854	0.878	0.611	0.726	0.606

SMILES	relative viability (0.0128 nM)	relative viability (0.064 nM)	relative viability (0.32 nM)	relative viability (1.6 nM)	relative viability (8 nM)	relative viability (40 nM)	relative viability (200 nM)	relative viability (1000 nM)	relative viability (5000 nM)
CC[C@@H]1C(=O)N(C)c2cnc(Nc3ccc(C(=O)N[C@H]4CC[C@H](N5CCN(CC6CC6)CC5)CC4)cc3OC)nc2N1C(C)C [BI 6727]	0.706	0.695	0.747	0.702	0.673	0.0558	0.0271	0.0476	0.00974
O=C(c1ccc(F)cc1)N1CCC[C@H](c2nc(-c3ccc(F)cc3)no2)C1	0.666	0.789	0.569	0.821	0.683	0.597	0.501	0.589	0.394
CC/C(=C(\c1ccccc1)c1ccc(OCCN(C)C)cc1)c1ccccc1 [Tamoxifen Citrate]	0.884	0.884	0.823	0.836	0.791	0.634	0.544	0.228	0.00657
Clc1cccc(Cl)c1NC1=NCCN1 [Clonidine HCl]	0.26	0.178	0.24	0.836	0.835	0.164	0.296	0.187	0.478
Nc1nc(N)c2nc(-c3cccc(O)c3)c(-c3cccc(O)c3)nc2n1 [TG100-115]	1.22	1.53	1.42	1.09	0.557	0.851	0.931	1.13	0.587
C[N+]1(C)[C@@H]2C[C@@H](OC(=O)C(O)(c3cccs3)c3cccs3)C[C@H]1[C@@H]1O[C@@H]12 [Tiotropium Bromide hydrate]	0.961	0.922	0.883	0.84	0.756	0.681	0.802	0.699	0.679
CN1[C@@H]2CC[C@H]1C[C@@H](OC(=O)C(CO)c1ccccc1)C2 (some centres undefined) [Atropine]	0.681	0.72	0.678	0.729	0.725	0.732	0.751	0.742	0.704
COc1cc(OC)c(/C=C/S(=O)(=O)Cc2ccc(OC)c(NCC(=O)O)c2)c(OC)c1	1.05	1.08	1.01	1.03	1	0.938	0.848	0.6	0.48
O=C1c2c(O)ccc(O)c2C(=O)c2c(NCCNCCO)ccc(NCCNCCO)c21 [Mitoxantrone HCl]	0.792	0.787	0.787	0.337	0.0242	0.0361	0.0106	0.00801	0.00764
Cc1ccc(Nc2nccc(N(C)c3ccc4c(C)n(C)nc4c3)n2)cc1S(N)(=O)=O [Pazopanib HCl]	0.896	0.78	0.866	0.761	1.02	1.01	0.756	0.643	0.00858
Cc1cc(Nc2cc(N3CCN(C)CC3)nc(/C=C/c3ccccc3)n2)n[nH]1 [ENMD-2076]	0.838	0.768	0.695	0.227	0.761	0.123	0.689	0.634	0.622
CC[C@H](Nc1ncnc2[nH]cnc12)c1nc2cccc(F)c2c(=O)n1-c1ccccc1 [CAL-101]	0.538	1.07	1.03	1.07	0.904	1.16	0.952	0.834	0.719
C[C@@H]1CN(CC(=O)Nc2ccc3c(c2)Cc2cccc(-c4cc(=O)cc(N5CCOCC5)o4)c2S3)C[C@H](C)O1	0.947	1.18	1.08	1.02	0.832	0.662	0.838	0.631	0.164
CC(=O)Nc1ccccc1 [Acetanilide]	0.808	0.833	0.854	0.823	0.794	0.799	0.753	0.8	0.795
CCOc1cc2ncc(C#N)c(Nc3ccc(F)c(Cl)c3)c2cc1NC(=O)/C=C/CN(C)C [Pelitinib (EKB-569)]	0.833	0.88	0.718	0.758	0.776	0.878	0.716	0.0202	0.00914
O=C(Nc1cccnc1)N1CCC(Cc2cccc(Oc3ccc(C(F)(F)F)cn3)c2)CC1 [PF-3845]	0.882	0.993	0.922	0.853	0.656	0.608	0.655	0.734	0.41
CN(C)C(=O)[C@H](O)[C@H](Cc1ccccc1)NC(=O)c1cc2cc(Cl)ccc2[nH]1	0.635	0.692	0.65	0.635	0.727	0.699	0.741	0.728	0.892
CC(=O)Nc1nc(C)c(-c2ccc(Cl)c(S(=O)(=O)NCCO)c2)s1 [PIK-93]	0.867	0.894	1.04	0.99	0.912	0.927	0.89	0.628	0.507
O=C(O)Cc1ccccc1Nc1c(Cl)cccc1Cl [Diclofenac Sodium]	0.777	0.669	0.66	0.692	0.645	0.596	0.609	0.51	0.55
CCOC(=O)[C@H](CCc1ccccc1)N[C@@H](C)C(=O)N1[C@H](C(=O)O)C[C@@H]2CCC[C@@H]21 [Ramipril]	0.875	0.838	0.851	0.832	0.767	0.754	0.775	0.753	0.556
COC(=O)N1CCN(Cc2cccc(NC(=O)Nc3ccc(C)nc3)c2F)CC1 [Omecamtiv mecarbil]	0.46	0.677	0.639	0.89	0.642	0.701	0.677	0.74	0.577
COc1cccc2cc(-c3nc([C@H]4CC[C@H](C(=O)O)CC4)n4ncnc(N)c34)[nH]c12 [OSI-027]	0.73	0.712	0.681	0.71	0.743	0.739	0.741	0.799	0.489
CNC[C@H](O)c1ccc(O)c(O)c1 [Epinephrine Bitartrate]	0.886	0.827	0.815	0.795	0.816	0.802	0.818	0.825	0.799

Reprinted from the listing for reference:
SMILES	relative viability (0.0128 nM)	relative viability (0.064 nM)	relative viability (0.32 nM)	relative viability (1.6 nM)	relative viability (8 nM)	relative viability (40 nM)	relative viability (200 nM)	relative viability (1000 nM)	relative viability (5000 nM)
CC[C@@H]1C(=O)N(C)c2cnc(Nc3ccc(C(=O)N[C@H]4CC[C@H](N5CCN(CC6CC6)CC5)CC4)cc3OC)nc2N1C(C)C [BI 6727]	0.706	0.695	0.747	0.702	0.673	0.0558	0.0271	0.0476	0.00974
O=C(c1ccc(F)cc1)N1CCC[C@H](c2nc(-c3ccc(F)cc3)no2)C1	0.666	0.789	0.569	0.821	0.683	0.597	0.501	0.589	0.394
